# Source: the supplement of paper PMC8728848
# The other results are listed elsewhere or left out.
# B1: CTLX (Homo sapiens), Q6UXS0 (protein)
# chain: SLCPLFWMEFKGHCYRFFPLNKTWAEADLYCSEFSVGRKSAKLASIHSWEENVFVYDLVNSCVPGIPADVWTGLHDHRQEGQFEWTDGSSYDYSYWDGSQPDDGVHADPEEEDCVQIWYRPTSALRSWNDNTCSRKFPFVCKIPSLTIH
# Tests used:
# Experiment in all cases: glycan array binding signal (z-score within array); higher = stronger binding
# Settings in all cases: glycan notation: IUPAC condensed, linker removed
# [1] = molecular target: GlcNAc(a1-6)Gal(b1-4)GlcNAc
# Summary of the method: (§1)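 The binding signal is a Z-score computed within each array. Data were drawn from 3228 arrays in the Consortium for Functional Glycomics database, restricted to those with a known protein sequence. Scores were averaged over arrays of the same protein sequence at different concentrations or buffers, and over linkers, and negative values can be taken as non-binding.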
# [2] = molecular target: GlcNAc(b1-2)Gal(b1-3)GalNAc
# Summary of the method: as §1
# [3] = molecular target: GlcNAc(b1-2)Man(a1-3)[GlcNAc(b1-2)Man(a1-6)]Man(b1-4)GlcNAc(b1-4)GlcNAc
# Summary of the method: as §1
# [4] = molecular target: GlcNAc(b1-2)Man(a1-3)[GlcNAc(b1-2)Man(a1-6)]Man(b1-4)GlcNAc(b1-4)[Fuc(a1-6)]GlcNAc
# Summary of the method: as §1
# GlcNAc(b1-3)Gal = molecular target: GlcNAc(b1-3)Gal
# Summary of the method: as §1
# [5] = molecular target: GlcNAc(b1-3)Gal(b1-3)GalNAc
# Summary of the method: as §1
# GlcNAc(b1-3)Gal(b1-4)Glc = molecular target: GlcNAc(b1-3)Gal(b1-4)Glc
# Summary of the method: as §1
# [6] = molecular target: GlcNAc(b1-3)Gal(b1-4)GlcNAc
# Summary of the method: as §1
# [7] = molecular target: GlcNAc(b1-3)Gal(b1-4)GlcNAc(b1-3)Gal(b1-4)GlcNAc
# Summary of the method: as §1
# GlcNAc(b1-3)GalNAc = molecular target: GlcNAc(b1-3)GalNAc
# Summary of the method: as §1
# GlcNAc(b1-3)Man = molecular target: GlcNAc(b1-3)Man
# Summary of the method: as §1
# [8] = molecular target: GlcNAc(b1-3)[GlcNAc(b1-4)][GlcNAc(b1-6)]GlcNAc
# Summary of the method: as §1
# [9] = molecular target: GlcNAc(b1-3)[GlcNAc(b1-6)]Gal(b1-4)GlcNAc
# Summary of the method: as §1
# [10] = molecular target: GlcNAc(b1-3)[GlcNAc(b1-6)]GalNAc
# Summary of the method: as §1
# [11] = molecular target: GlcNAc(b1-4)Gal(b1-4)GlcNAc
# Summary of the method: as §1
# GlcNAc(b1-4)GlcNAc = molecular target: GlcNAc(b1-4)GlcNAc
# Summary of the method: as §1
# [12] = molecular target: GlcNAc(b1-4)GlcNAc(b1-4)GlcNAc
# Summary of the method: as §1
# [13] = molecular target: GlcNAc(b1-4)GlcNAc(b1-4)GlcNAc(b1-4)GlcNAc(b1-4)GlcNAc
# Summary of the method: as §1
# [14] = molecular target: GlcNAc(b1-4)GlcNAc(b1-4)GlcNAc(b1-4)GlcNAc(b1-4)GlcNAc(b1-4)GlcNAc
# Summary of the method: as §1
# [15] = molecular target: GlcNAc(b1-4)[GlcNAc(b1-6)]GalNAc
# Summary of the method: as §1
# [16] = molecular target: GlcNAc(b1-6)Gal(b1-4)GlcNAc
# Summary of the method: as §1
# GlcNAc(b1-6)GalNAc = molecular target: GlcNAc(b1-6)GalNAc
# Summary of the method: as §1
# GlcNAc3Prop(b1-4)GlcNAc = molecular target: GlcNAc3Prop(b1-4)GlcNAc
# Summary of the method: as §1
# [17] = molecular target: GlcNAc6S(b1-3)Gal(b1-4)GlcNAc
# Summary of the method: as §1
# Kdn(a2-3)Gal(b1-3)GalNAc = molecular target: Kdn(a2-3)Gal(b1-3)GalNAc
# Summary of the method: as §1
# Kdn(a2-3)Gal(b1-3)GlcNAc = molecular target: Kdn(a2-3)Gal(b1-3)GlcNAc
# Summary of the method: as §1
# Kdn(a2-3)Gal(b1-4)Glc = molecular target: Kdn(a2-3)Gal(b1-4)Glc
# Summary of the method: as §1
# Kdn(a2-3)Gal(b1-4)GlcNAc = molecular target: Kdn(a2-3)Gal(b1-4)GlcNAc
# Summary of the method: as §1
# [18] = molecular target: Kdn(a2-3)Gal(b1-4)[Fuc(a1-3)]GlcNAc
# Summary of the method: as §1
# Kdn(a2-6)Gal(b1-4)GlcNAc = molecular target: Kdn(a2-6)Gal(b1-4)GlcNAc
# Summary of the method: as §1
# [19] = molecular target: Man(a1-2)Man(a1-2)Man(a1-3)Man
# Summary of the method: as §1
# [20] = molecular target: Man(a1-2)Man(a1-2)Man(a1-6)[Man(a1-3)]Man
# Summary of the method: as §1
# Man(a1-2)Man(a1-3)Man = molecular target: Man(a1-2)Man(a1-3)Man
# Summary of the method: as §1
# [21] = molecular target: Man(a1-2)Man(a1-3)[Man(a1-2)Man(a1-6)]Man
# Summary of the method: as §1
# [22] = molecular target: Man(a1-2)Man(a1-3)[Man(a1-2)Man(a1-6)]Man(a1-6)[Man(a1-2)Man(a1-2)Man(a1-3)]Man
# Summary of the method: as §1
# [23] = molecular target: Man(a1-2)Man(a1-3)[Man(a1-2)Man(a1-6)]Man(a1-6)[Man(a1-2)Man(a1-2)Man(a1-3)]Man(b1-4)GlcNAc(b1-4)GlcNAc
# Summary of the method: as §1
# [24] = molecular target: Man(a1-2)Man(a1-3)[Man(a1-6)]Man(a1-6)[Man(a1-2)Man(a1-3)]Man(b1-4)GlcNAc(b1-4)GlcNAc
# Summary of the method: as §1
# [25] = molecular target: Man(a1-2)Man(a1-6)[Man(a1-3)]Man(a1-6)[Man(a1-2)Man(a1-2)Man(a1-3)]Man
# Summary of the method: as §1
# [26] = molecular target: Man(a1-2)Man(a1-6)[Man(a1-3)]Man(a1-6)[Man(a1-2)Man(a1-2)Man(a1-3)]Man(b1-4)GlcNAc(b1-4)GlcNAc
# Summary of the method: as §1
# Man(a1-3)[Man(a1-6)]Man = molecular target: Man(a1-3)[Man(a1-6)]Man
# Summary of the method: as §1
# [27] = molecular target: Man(a1-3)[Man(a1-6)]Man(a1-6)[Man(a1-2)Man(a1-3)]Man(b1-4)GlcNAc(b1-4)GlcNAc
# Summary of the method: as §1
# [28] = molecular target: Man(a1-3)[Man(a1-6)]Man(a1-6)[Man(a1-3)]Man
# Summary of the method: as §1
# [29] = molecular target: Man(a1-3)[Man(a1-6)]Man(a1-6)[Man(a1-3)]Man(b1-4)GlcNAc(b1-4)GlcNAc
# Summary of the method: as §1
# [30] = molecular target: Man(a1-3)[Man(a1-6)]Man(b1-4)GlcNAc(b1-4)GlcNAc
# Summary of the method: as §1
# Man(a1-6)Man = molecular target: Man(a1-6)Man
# Summary of the method: as §1
binder,measurement,setting,value
B1,glycan array binding signal (z-score),[1],1.64
same,glycan array binding signal (z-score),[2],-0.988
same,glycan array binding signal (z-score),[3],0.268
same,glycan array binding signal (z-score),[4],1.54
same,glycan array binding signal (z-score),GlcNAc(b1-3)Gal,-0.481
same,glycan array binding signal (z-score),[5],4.33
same,glycan array binding signal (z-score),GlcNAc(b1-3)Gal(b1-4)Glc,-0.052
same,glycan array binding signal (z-score),[6],-0.402
same,glycan array binding signal (z-score),[7],-0.368
same,glycan array binding signal (z-score),GlcNAc(b1-3)GalNAc,-1.1
same,glycan array binding signal (z-score),GlcNAc(b1-3)Man,-0.486
same,glycan array binding signal (z-score),[8],-0.646
same,glycan array binding signal (z-score),[9],-0.952
same,glycan array binding signal (z-score),[10],0.077
same,glycan array binding signal (z-score),[11],-0.206
same,glycan array binding signal (z-score),GlcNAc(b1-4)GlcNAc,1.3
same,glycan array binding signal (z-score),[12],-0.487
same,glycan array binding signal (z-score),[13],-0.43
same,glycan array binding signal (z-score),[14],-1.05
same,glycan array binding signal (z-score),[15],-0.699
same,glycan array binding signal (z-score),[16],0.922
same,glycan array binding signal (z-score),GlcNAc(b1-6)GalNAc,-0.029
same,glycan array binding signal (z-score),GlcNAc3Prop(b1-4)GlcNAc,-0.857
same,glycan array binding signal (z-score),[17],1.72
same,glycan array binding signal (z-score),Kdn(a2-3)Gal(b1-3)GalNAc,1.45
same,glycan array binding signal (z-score),Kdn(a2-3)Gal(b1-3)GlcNAc,-0.296
same,glycan array binding signal (z-score),Kdn(a2-3)Gal(b1-4)Glc,-0.174
same,glycan array binding signal (z-score),Kdn(a2-3)Gal(b1-4)GlcNAc,-0.699
same,glycan array binding signal (z-score),[18],0.498
same,glycan array binding signal (z-score),Kdn(a2-6)Gal(b1-4)GlcNAc,0.359
same,glycan array binding signal (z-score),[19],-0.284
same,glycan array binding signal (z-score),[20],-0.523
same,glycan array binding signal (z-score),Man(a1-2)Man(a1-3)Man,0.183
same,glycan array binding signal (z-score),[21],-0.178
same,glycan array binding signal (z-score),[22],-0.381
same,glycan array binding signal (z-score),[23],-0.548
same,glycan array binding signal (z-score),[24],-0.346
same,glycan array binding signal (z-score),[25],0.48
same,glycan array binding signal (z-score),[26],-0.308
same,glycan array binding signal (z-score),Man(a1-3)[Man(a1-6)]Man,-0.586
same,glycan array binding signal (z-score),[27],-0.848
same,glycan array binding signal (z-score),[28],-0.932
same,glycan array binding signal (z-score),[29],-1.14
same,glycan array binding signal (z-score),[30],-0.295
same,glycan array binding signal (z-score),Man(a1-6)Man,0.105
